{"source": "the supplement of paper PMC9135407", "test_system": "primary human hepatic stellate cells (donor 1)", "assay": "percent Bodipy-positive cells; higher = more lipid droplet accumulation", "conditions": "48 h", "key": {"[1]": {"conditions": "library stock concentration: 10 mM"}, "[2]": {"conditions": "library stock concentration: 3.33 mM"}, "[3]": {"conditions": "library stock concentration: 1 mM"}, "[4]": {"conditions": "library stock concentration: 80 uM"}, "[5]": {"conditions": "library stock concentration: 400 uM"}, "[6]": {"conditions": "library stock concentration: 2 mM"}}, "note": "“And” between values parts separate entries of the source, which are not always exact repeats. Identical values can stand only once. Counter-ions that a name gives are not always drawn. ± gives the standard deviation of the averaged measurements. The list shows a part of the results. Baselines shift from plate to plate; read single values as rough.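 Assay uses culture-activated primary human stellate myofibroblasts; lipid droplet recovery indicates inactivation. Measured: proportion of Hoechst-counted cells over a plate-specific Bodipy cutoff, duplicate wells, DMSO and nortriptyline as per-plate negative and positive controls. A hit scores, control-normalized, above the plate's top-tenth-percentile nortriptyline wells or ranks among its three best wells. Final well concentrations not reported.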", "data": [{"compound": "C#CC(N)CCC(=O)O", "note": "(stereo unspecified) [gamma-Acetylinic GABA]", "values": [{"measurement": "percent Bodipy-positive cells", "setting": "[1]", "result": "32.3 ± 2.9", "unit": "%"}]}, {"compound": "CCCCC/N=c1\\ccn(Cc2ccccc2)c2ccccc12", "values": [{"measurement": "percent Bodipy-positive cells", "setting": "[1]", "result": "43.6 ± 9.8", "unit": "%"}]}, {"compound": "CO[C@H]1C[C@H](O[C@H]2[C@H](C)O[C@@H](O[C@@H]3/C(C)=C/C[C@@H]4C[C@@H](C[C@]5(C=C[C@H](C)[C@@H](C6CCCCC6)O5)O4)OC(=O)[C@@H]4C=C(C)[C@@H](O)[C@H]5OC/C(=C\\C=C\\[C@@H]3C)[C@]54O)C[C@@H]2OC)O[C@@H](C)[C@@H]1O", "values": [{"measurement": "percent Bodipy-positive cells", "setting": "[1]", "result": "97.36 ± 0.76", "unit": "%"}]}, {"compound": "COc1c(C)c(C(=O)c2ccc(N)c(C(=O)O)c2)n2ccccc12", "values": [{"measurement": "percent Bodipy-positive cells", "setting": "[2]", "result": "15.2 ± 2.6", "unit": "%"}, {"measurement": "percent Bodipy-positive cells", "setting": "[1]", "result": "18.7 ± 0.76", "unit": "%"}]}, {"compound": "CCCCCCCC/C=C\\CCCCCC(=O)O", "note": "[cis-7-Hexadecenoic Acid]", "values": [{"measurement": "percent Bodipy-positive cells", "setting": "[3]", "result": "12.1 ± 4.1", "unit": "%"}]}, {"compound": "CCCCCC(=O)/C=C/[C@H]1[C@H](O)CC(=O)[C@@H]1C/C=C\\CCCC(=O)O", "note": "[15-keto Prostaglandin E2]", "values": [{"measurement": "percent Bodipy-positive cells", "setting": "[3]", "result": "17.9 ± 6.5", "unit": "%"}]}, {"compound": "O=C(CCCN1CCC(O)(c2ccc(Cl)cc2)CC1)c1ccc(F)cc1", "note": "[Haloperidol]", "values": [{"measurement": "percent Bodipy-positive cells", "setting": "[1]", "result": "96.47 ± 0.93", "unit": "%"}]}, {"compound": "OCCNCCCOc1cccc(Cl)c1Cl", "note": "[2,3-DCPE (hydrochloride)]", "values": [{"measurement": "percent Bodipy-positive cells", "setting": "[3]", "result": "12.2 ± 0.25", "unit": "%"}]}, {"compound": "O=C1c2c(O)cccc2Cc2cccc(O)c21", "note": "[Anthralin]", "values": [{"measurement": "percent Bodipy-positive cells", "setting": "library stock concentration: 8.8 mM", "result": "4.48 ± 0.34", "unit": "%"}, {"measurement": "percent Bodipy-positive cells", "setting": "[1]", "result": "27.6 ± 0.34", "unit": "%"}]}, {"compound": "COc1nccc(-c2c(-c3ccc(F)cc3)ncn2C2CCC(O)CC2)n1", "note": "(stereo unspecified)", "values": [{"measurement": "percent Bodipy-positive cells", "setting": "[4]", "result": "10.1 ± 0.8", "unit": "%"}, {"measurement": "percent Bodipy-positive cells", "setting": "[5]", "result": "9.01 ± 0.26", "unit": "%"}, {"measurement": "percent Bodipy-positive cells", "setting": "[6]", "result": "9.81 ± 0.71", "unit": "%"}, {"measurement": "percent Bodipy-positive cells", "setting": "[2]", "result": "7.33 ± 0.27", "unit": "%"}, {"measurement": "percent Bodipy-positive cells", "setting": "[1]", "result": "8.08% and 7.82%"}]}, {"compound": "CN1c2cc3c(cc2N=C(c2ccc(C(=O)O)cc2)c2ccccc21)C(C)(C)CCC3(C)C", "values": [{"measurement": "percent Bodipy-positive cells", "setting": "[1]", "result": "12.8 ± 0.87", "unit": "%"}]}, {"compound": "CCC=CCC=CCC=CCCCCCCCCCC(=O)O", "note": "[11(Z),14(Z),17(Z)-Eicosatrienoic Acid]", "values": [{"measurement": "percent Bodipy-positive cells", "setting": "[3]", "result": "9.03 ± 3.7", "unit": "%"}]}, {"compound": "CCc1cc2c(cc1CC)CC(NC[C@H](O)c1ccc(O)c3[nH]c(=O)ccc13)C2.O=C(O)C=CC(=O)O", "note": "[Indacaterol Maleate]", "values": [{"measurement": "percent Bodipy-positive cells", "setting": "[1]", "result": 100, "unit": "%"}]}, {"compound": "O/N=C/c1ccc(-c2ccc(O)c(F)c2)c(Cl)c1O", "values": [{"measurement": "percent Bodipy-positive cells", "setting": "[1]", "result": "6.35 ± 0.3", "unit": "%"}]}, {"compound": "CN(C)CCCn1cc(C2=C(c3c[nH]c4ccccc34)C(=O)NC2=O)c2ccccc21", "values": [{"measurement": "percent Bodipy-positive cells", "setting": "[1]", "result": "70 ± 3.9", "unit": "%"}]}, {"compound": "CC[N+](C)(CC)CCOC(=O)C(O)(c1ccccc1)C1CCCCC1", "note": "(stereo unspecified)", "values": [{"measurement": "percent Bodipy-positive cells", "setting": "[1]", "result": "16.7 ± 11", "unit": "%"}]}, {"compound": "COc1ccc2c(c1)CCC1C2CCC2(C)C(NCCCCCCN3C(=O)C=CC3=O)CCC12", "note": "(stereo unspecified)", "values": [{"measurement": "percent Bodipy-positive cells", "setting": "[3]", "result": "8.43 ± 3.4", "unit": "%"}, {"measurement": "percent Bodipy-positive cells", "setting": "[1]", "result": "65.8 ± 10", "unit": "%"}]}, {"compound": "COc1cc2c(Nc3ccc(NC(=O)c4ccccc4)cc3)ncnc2cc1OCCCN1CCOCC1", "values": [{"measurement": "percent Bodipy-positive cells", "setting": "[1]", "result": "97.5 ± 1.7", "unit": "%"}]}, {"compound": "CC(C)C[C@H](NP(=O)(O)O[C@@H]1O[C@@H](C)[C@H](O)[C@@H](O)[C@H]1O)C(=O)N[C@@H](Cc1c[nH]c2ccccc12)C(=O)O", "note": "[Phosphoramidon Disodium Salt]", "values": [{"measurement": "percent Bodipy-positive cells", "setting": "[2]", "result": "22.1 ± 2.5", "unit": "%"}, {"measurement": "percent Bodipy-positive cells", "setting": "[1]", "result": "31.5 ± 8.1", "unit": "%"}]}, {"compound": "COc1cc(C(=O)OCCCN2CCCN(CCCOC(=O)c3cc(OC)c(OC)c(OC)c3)CC2)cc(OC)c1OC", "note": "[Dilazep dihydrochloride]", "values": [{"measurement": "percent Bodipy-positive cells", "result": "62.1 ± 9.8", "unit": "%"}]}, {"compound": "COC(=O)C1=C(C)NC(C)=C([N+](=O)[O-])C1c1ccccc1C(F)(F)F", "note": "(stereo unspecified)", "values": [{"measurement": "percent Bodipy-positive cells", "setting": "library stock concentration: 14 mM", "result": "22.7 ± 14", "unit": "%"}]}, {"compound": "COc1ccc(-c2ccc3c(N4CCOC[C@@H]4C)nc(N4CCOC[C@@H]4C)nc3n2)cc1CO", "values": [{"measurement": "percent Bodipy-positive cells", "setting": "[4]", "result": "8.84 ± 7.2", "unit": "%"}, {"measurement": "percent Bodipy-positive cells", "setting": "[5]", "result": "8.057 ± 0.048", "unit": "%"}, {"measurement": "percent Bodipy-positive cells", "setting": "[6]", "result": "7.62 ± 0.4", "unit": "%"}, {"measurement": "percent Bodipy-positive cells", "setting": "[2]", "result": "6.51 ± 4.2", "unit": "%"}, {"measurement": "percent Bodipy-positive cells", "setting": "[1]", "result": "16.6% and 10.9%"}]}, {"compound": "CC(C)Oc1ccc(C(=O)c2ccc(NC3=NCCN3)cc2)cc1", "values": [{"measurement": "percent Bodipy-positive cells", "setting": "[3]", "result": "19.9 ± 6.3", "unit": "%"}]}, {"compound": "COCC[n+]1c2c(n(Cc3cnccn3)c1C)C(=O)c1ccccc1C2=O", "note": "[YM155 (Sepantronium Bromide)]", "values": [{"measurement": "percent Bodipy-positive cells", "setting": "[2]", "result": "59.8 ± 15", "unit": "%"}, {"measurement": "percent Bodipy-positive cells", "setting": "[1]", "result": "97.82 ± 0.58", "unit": "%"}]}, {"compound": "O=C(NCCO)c1cccc(-c2cc(Nc3ccc(OC(F)(F)F)cc3)ncn2)c1", "values": [{"measurement": "percent Bodipy-positive cells", "setting": "[2]", "result": "34.6 ± 9.2", "unit": "%"}, {"measurement": "percent Bodipy-positive cells", "setting": "[1]", "result": "85.4 ± 3.1", "unit": "%"}]}, {"compound": "COCCCCCCCCCCCC(=O)O", "note": "[12-Methoxydodecanoic acid]", "values": [{"measurement": "percent Bodipy-positive cells", "setting": "[3]", "result": "11.9 ± 12", "unit": "%"}]}, {"compound": "FC(F)(F)c1ccc(/C=C\\c2cc(Cl)cc(Cl)c2)cc1", "values": [{"measurement": "percent Bodipy-positive cells", "setting": "[3]", "result": "10 ± 5.3", "unit": "%"}]}, {"compound": "Nc1ncnc2c1c(-c1ccc(Oc3ccccc3)cc1)cn2C1CCCC1", "values": [{"measurement": "percent Bodipy-positive cells", "setting": "[1]", "result": "48.1 ± 14", "unit": "%"}]}, {"compound": "CCN(CC)CCc1nc(-c2ccccc2)no1", "note": "[Oxalamine citrate salt]", "values": [{"measurement": "percent Bodipy-positive cells", "result": "10.2 ± 1.2", "unit": "%"}]}, {"compound": "CCN(CC)CCc1nc(-c2ccccc2)no1", "values": [{"measurement": "percent Bodipy-positive cells", "setting": "[1]", "result": "30.6 ± 8.1", "unit": "%"}]}, {"compound": "CC(C)NCC(O)c1ccc(O)c(O)c1", "note": "(single isomer, unassigned; (+)) [(+)-Isoproterenol (+)-bitartrate salt]", "values": [{"measurement": "percent Bodipy-positive cells", "result": "8.51 ± 3", "unit": "%"}]}, {"compound": "COc1ccc([C@]2(C#N)CC[C@@H](C(=O)O)CC2)cc1OC1CCCC1", "note": "[Cilomilast]", "values": [{"measurement": "percent Bodipy-positive cells", "setting": "[2]", "result": "7.64 ± 3", "unit": "%"}, {"measurement": "percent Bodipy-positive cells", "setting": "[1]", "result": "14.9 ± 1.6", "unit": "%"}]}, {"compound": "CCOc1c2c(c(OCC)c3ccccc13)C(=O)N(c1ccc(CC(=O)NS(=O)(=O)c3ccccc3)cc1)C2", "values": [{"measurement": "percent Bodipy-positive cells", "setting": "[3]", "result": "12.1 ± 3.6", "unit": "%"}]}, {"compound": "CNCC(O)c1ccc(OC(=O)C(C)(C)C)c(OC(=O)C(C)(C)C)c1", "note": "(stereo unspecified) [Dipivefrin hydrochloride]", "values": [{"measurement": "percent Bodipy-positive cells", "result": "26.8 ± 5.2", "unit": "%"}]}, {"compound": "CC(C)S(=O)(=O)Nc1ccc(F)c(C(=O)c2c[nH]c3ncc(-c4cccnc4)cc23)c1F", "values": [{"measurement": "percent Bodipy-positive cells", "setting": "[4]", "result": "12.3 ± 0.9", "unit": "%"}, {"measurement": "percent Bodipy-positive cells", "setting": "[5]", "result": "13.1 ± 6", "unit": "%"}, {"measurement": "percent Bodipy-positive cells", "setting": "[6]", "result": "10.9 ± 4.6", "unit": "%"}, {"measurement": "percent Bodipy-positive cells", "setting": "[1]", "result": "15.9 ± 1", "unit": "%"}]}, {"compound": "CC(=O)NC1[C@@H](O)OC(CO)[C@@H](O)[C@H]1O[C@H](C)C(=O)O", "note": "(stereo in doubt) [Muramic acid, N-acetyl]", "values": [{"measurement": "percent Bodipy-positive cells", "result": "29.8 ± 2.2", "unit": "%"}]}, {"compound": "O=S(=O)(O)NC1CCCCC1", "note": "[Cyclamic  acid]", "values": [{"measurement": "percent Bodipy-positive cells", "setting": "[2]", "result": "14 ± 9.4", "unit": "%"}, {"measurement": "percent Bodipy-positive cells", "setting": "[1]", "result": "20.2 ± 4.4", "unit": "%"}]}]}
